In experiment [1] the target is HLA-A*02:01 (human). The experiment is described as follows: REVEAL binding assay (ProImmune), 9-mer peptide on HLA-A*02:01.
Experiment [2] concerns the target HLA-A*02:01 (human). The experiment is described as follows: REVEAL binding assay (ProImmune), screen of P210 epitopes on HLA-A*02:01.

Results are given in words; binding and its absence hold for the method and conditions named. Binding can be weak; no strength is given.

B1: P210 9-mer peptide 1, … (SEQ ID NO:2) (peptide)
peptide: KTTKQSFDL
Take B1: the binding result with HLA-A*02:01 (human) [1] and with HLA-A*02:01 (human) [2] was “binds” each time.

Source of the values: patent US20230355763A1, “NANOPARTICLE VACCINES AND USES THEREOF FOR PROPHYLAXIS AND TREATMENT OF ATHEROSCLEROSIS USING PEPTIDE 210 AS AN ANTIGEN” (CEDARS-SINAI MEDICAL CENTER, priority 2022, published 2023).
